Some results were stated once for a whole list of compounds, not compound by compound. For at least one compound, name, drawing or mass did not settle the structure.
Tested on: unpolished rice
Test: Germination of unpolished rice in aqueous mineral solution
Format: in vivo
Conditions: saccharide 1 w/v %
Experimental: Suitable mineral range of aqueous mineral solutions containing saccharides was examined by using unpolished rice as an agricultural product. In detail, a commercialized purified salt as a mineral was dissolved in tap water to give a final concentration of 0.5, 1.0, 1.5, or 2.0 as described in the following Table 6. α,α-Trehalose or α-maltosyl α,α-trehalose was dissolved in the resulting solutions to give a final concentration of 1 w/v %, on a dry solid basis. Absorbent cotton was allowed to absorb the resulting solution in an appropriate amount and placed in a plastic laboratory dish with a cover. Commercialized unpolished rice grains were placed on the cotton in the dish by 20 grains per group and kept at ambient temperature (25° C.) under a light-shaded condition by covering with a black cloth. […] Effective concentration of α,α-trehalose or α-maltosyl α,α-trehalose on expanding suitable region for biological activity of unpolished rice grains were determined by examining the number of germinated unpolished rice grains and germination time as an index in accordance with the method in Experiment 6 in the aqueous mineral solution with mineral concentration of 1.5 w/v %, where α,α-trehalose or α-maltosyl α,α-trehalose was effective in Experiment 6, containing α,α-trehalose or α-maltosyl α,α-trehalose in a concentration of 0.01, 0.1, 1, 2, 3, 4 or 6 w/v %, on a dry solid basis. […]

Compound: OC[C@H]1O[C@H](O[C@H]2O[C@H](CO)[C@@H](O)[C@H](O)[C@H]2O)[C@H](O)[C@@H](O)[C@@H]1O [α,α-Trehalose, α,α-trehalose]
- mineral concentration at which coexistence of saccharide was effective on germination: ≤ 1.5 w/v %

Compound: OC[C@H]1O[C@H](O[C@H]2O[C@H](CO)[C@@H](O[C@H]3O[C@H](CO)[C@@H](O[C@H]4O[C@H](CO)[C@@H](O)[C@H](O)[C@H]4O)[C@H](O)[C@H]3O)[C@H](O)[C@H]2O)[C@H](O)[C@@H](O)[C@@H]1O [α-Maltosyl α,α-trehalose, α-maltosyl α,α-trehalose]
- mineral concentration at which coexistence of saccharide was effective on germination: ≤ 1.5 w/v %
